This is an account of results in publication PMC11661440.

Chains of the proteins cited; added tags and fusions are not shown. Lines headed by an entry give the natural chain unless they say otherwise; changes in a name come on top.
UniProt Q9UKE5: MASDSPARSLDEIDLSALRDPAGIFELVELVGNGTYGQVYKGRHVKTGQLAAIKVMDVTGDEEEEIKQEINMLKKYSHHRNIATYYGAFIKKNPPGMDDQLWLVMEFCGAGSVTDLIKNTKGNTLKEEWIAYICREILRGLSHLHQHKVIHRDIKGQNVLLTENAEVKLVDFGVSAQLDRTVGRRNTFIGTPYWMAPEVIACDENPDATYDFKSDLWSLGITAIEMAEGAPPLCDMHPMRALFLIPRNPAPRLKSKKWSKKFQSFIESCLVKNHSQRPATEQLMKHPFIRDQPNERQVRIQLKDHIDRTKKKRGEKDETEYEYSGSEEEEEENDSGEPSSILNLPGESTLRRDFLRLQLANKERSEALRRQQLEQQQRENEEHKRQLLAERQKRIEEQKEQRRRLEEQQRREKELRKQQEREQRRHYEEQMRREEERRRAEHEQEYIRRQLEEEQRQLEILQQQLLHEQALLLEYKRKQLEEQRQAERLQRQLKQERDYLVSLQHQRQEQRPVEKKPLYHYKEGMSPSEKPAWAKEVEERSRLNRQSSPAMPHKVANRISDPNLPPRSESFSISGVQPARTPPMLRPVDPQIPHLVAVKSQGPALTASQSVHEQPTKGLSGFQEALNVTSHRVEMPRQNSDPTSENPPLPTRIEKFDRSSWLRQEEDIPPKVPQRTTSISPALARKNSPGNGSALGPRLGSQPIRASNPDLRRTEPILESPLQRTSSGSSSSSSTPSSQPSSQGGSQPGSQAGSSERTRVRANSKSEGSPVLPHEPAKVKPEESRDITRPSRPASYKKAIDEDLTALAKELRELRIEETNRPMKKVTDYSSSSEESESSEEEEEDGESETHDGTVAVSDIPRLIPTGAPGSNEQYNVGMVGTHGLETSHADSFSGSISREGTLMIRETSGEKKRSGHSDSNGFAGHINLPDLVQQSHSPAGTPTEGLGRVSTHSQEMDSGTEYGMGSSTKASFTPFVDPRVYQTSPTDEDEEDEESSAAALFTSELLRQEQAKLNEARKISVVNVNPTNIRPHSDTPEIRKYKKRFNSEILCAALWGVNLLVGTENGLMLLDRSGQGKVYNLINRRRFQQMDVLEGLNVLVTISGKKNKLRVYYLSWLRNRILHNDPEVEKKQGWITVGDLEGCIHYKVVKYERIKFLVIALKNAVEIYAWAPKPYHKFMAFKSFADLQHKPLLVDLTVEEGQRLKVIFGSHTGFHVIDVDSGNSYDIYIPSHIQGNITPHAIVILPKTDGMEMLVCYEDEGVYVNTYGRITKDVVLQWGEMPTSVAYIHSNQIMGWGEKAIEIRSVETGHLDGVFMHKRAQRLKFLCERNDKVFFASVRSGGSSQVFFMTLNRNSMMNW

Test [1] addresses YFP-TNIK C202S (human) (UniProt Q9UKE5). Kind of test: cross-linking; disulfide-linked species of YFP-TNIK immunoprecipitated from HEK293T lysate on GFP-Trap beads (washed with 500 mM NaCl); oxidised with 0, 0.2, 0.5 and 1 mM H2O2 at 30°C for 15 min; nonreducing SDS-PAGE and Western blotting; both purified. (In general: Immunoblotting shows a protein as a band on a membrane.)
Test [2] deals with Recombinant GST-tagged TNIK kinase domain (human amino acids 1 to 367) (human) (UniProt Q9UKE5). Kind of test: condition: only reducing SDS-PAGE after boiling with DTT; cross-linking; disulfide-linked species of purified GST-TNIK KD; oxidised in vitro with 50 uM H2O2 at 30°C for 15 min or without H2O2 (air oxidation); nonreducing (-DTT) or reducing (+DTT) SDS-PAGE and Western blotting; both purified.

No constants are given. Whether binding was seen depends on the method and setting.

With “YFP-TNIK C202S (from UniProt Q9UKE5 1-1360)”, the binding entry in test [1] is “no binding”.
In the case of “Recombinant GST-tagged TNIK kinase domain (human amino acids 1 to 367) (from UniProt Q9UKE5 1-367) (domain or fragment)”, the binding result in test [2] is reported as “no binding”.
